Experimental data: PubChem BioAssay AID743121 (NCATS, 2013)

- Test: 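Knock-downs that sensitise breast cancer cells to camptothecin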 (primary screen)
- Cells: MDA-MB-231 cells, a human breast cancer line
- Reagents: single siRNA against human genes, 20 nM siRNA (0.8 pmol per well)
- Time to read-out: 120 h (drug added 48 h after transfection, read 72 h later)
- Challenge: camptothecin 20 nM (about EC30) for 72 h; vehicle 0.1% DMSO in parallel plates
- Read-out: 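CellTiter-Glo ATP signal, scaled to control siRNA as percent viability; sensitisation given as log2 of untreated divided by camptothecin-treated viability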
- Scale: log2 vehicle/camptothecin viability: higher = stronger sensitisation to camptothecin
- Active means: 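Each gene scored by redundant siRNA activity (RSA) over its individual siRNA ratios; a gene is called active at p < 0.001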
The whole screen tested about 26,000 reagents; below is a part drawn at random. 167 of them (0.63%) were called active. 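Calls are per gene from RSA p-values that are not deposited; an individual active-marked siRNA can sensitise only weakly.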 The numbers tell different reagents against one gene apart. Further read-outs or replicates are left out here.

gene | siRNA no. | log2 vehicle/camptothecin viability | activity call
SIK2 | 1 | -0.345 | inactive
SIK2 | 2 | -0.0362 | inactive
SIK2 | 3 | -0.208 | inactive
SIK2 | 4 | -0.0632 | inactive
IFNA2 | 1 | -0.435 | inactive
IFNA2 | 2 | -0.329 | inactive
IFNA2 | 3 | 0.0691 | inactive
IFNA2 | 4 | 0.723 | inactive
SENP3 | 1 | 0.203 | inactive
SENP3 | 2 | -0.214 | inactive
SENP3 | 3 | 0.296 | inactive
FDXR | 1 | -0.389 | inactive
FDXR | 2 | -0.629 | inactive
FDXR | 3 | -0.245 | inactive
FDXR | 4 | -0.209 | inactive
PSKH1 | 1 | 0.175 | inactive
PSKH1 | 2 | -0.332 | inactive
PSKH1 | 3 | -0.284 | inactive
PSKH1 | 4 | -0.255 | inactive
BCLAF3 | 1 | -0.0995 | inactive
BCLAF3 | 2 | -0.622 | inactive
BCLAF3 | 3 | 0.0379 | inactive
BCLAF3 | 4 | -0.1 | inactive
NPAS1 | 1 | 0.346 | inactive
NPAS1 | 2 | -0.0436 | inactive
NPAS1 | 3 | -0.24 | inactive
NPAS1 | 4 | -0.254 | inactive
CTSZ | 1 | -0.0426 | inactive
CTSZ | 2 | -0.314 | inactive
CTSZ | 3 | -0.358 | inactive
CTSZ | 4 | 0.0859 | inactive
CKAP4 | 1 | 0.48 | inactive
CKAP4 | 2 | 0.119 | inactive
CKAP4 | 3 | -0.223 | inactive
CKAP4 | 4 | -0.602 | inactive
TREX2 | 1 | 0.212 | inactive
TREX2 | 2 | -0.405 | inactive
TREX2 | 3 | 0.931 | inactive
TREX2 | 4 | -0.518 | inactive
IMPDH2 | 1 | -0.0414 | inactive
IMPDH2 | 2 | -0.13 | inactive
IMPDH2 | 3 | -0.371 | inactive
TLR3 | 1 | -0.589 | inactive
TLR3 | 2 | 0.549 | inactive
TLR3 | 3 | 0.241 | inactive
TLR3 | 4 | 0.928 | inactive
MGLL | 1 | -0.29 | inactive
MGLL | 2 | -0.39 | inactive
MGLL | 3 | -0.134 | inactive
MGLL | 4 | -0.104 | inactive
COQ8A | 1 | -0.153 | inactive
COQ8A | 2 | -0.105 | inactive
COQ8A | 3 | 0.399 | inactive
COQ8A | 4 | -0.147 | inactive
NDUFV2 | 1 | -0.0765 | inactive
NDUFV2 | 2 | -0.304 | inactive
NDUFV2 | 3 | 0.965 | inactive
NDUFV2 | 4 | -0.134 | inactive
DOCK1 | 1 | -0.178 | inactive
DOCK1 | 2 | 0.0648 | inactive
DOCK1 | 3 | -0.315 | inactive
DOCK1 | 4 | -0.0437 | inactive
DEF6 | 1 | 0.433 | inactive
DEF6 | 2 | -0.141 | inactive
DEF6 | 3 | -0.233 | inactive
DEF6 | 4 | 0.115 | inactive
TRIM34 | 1 | 0.378 | inactive
TRIM34 | 2 | -0.179 | inactive
TRIM34 | 3 | 0.00761 | inactive
TRIM34 | 4 | -0.201 | inactive
